Measured data: PubChem BioAssay AID1159584 (Peter MacCallum Cancer Centre, 2016)
Assay: 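Genes that CDH1-null MCF10A cells selectively depend on to survive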 (primary screen). System: human MCF10A breast epithelial cells, parental and CDH1-null. Knock-down reagent: siRNA against human genes. Read-out: 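Cell viability by CellTiter-Glo ATP luminescence, each line scaled to the mean of mock wells across plates, then CDH1-null over parental ratio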. Reading the numbers: CDH1-null / parental viability ratio: higher = CDH1-null cells survive relatively better than parental; CDH1-null viability vs mock: higher = more viable CDH1-null cells; parental viability vs mock: higher = more viable parental cells.
Here is an unselected part of about 18,000 reagents. The record does not give: the amount of reagent, the time to read-out.

gene	PubChem SID	CDH1-null / parental viability ratio	CDH1-null viability vs mock (fraction of mock)	parental viability vs mock (fraction of mock)
ZNF395	SID135623978	1.08	0.96	0.89
ATP1A4	SID135624191	1.06	1.02	0.96
CLDN8	SID135623265	1.17	0.97	0.83
KCNC4	SID152149581	1.08	0.82	0.76
EPHA1	SID152153474	0.88	0.84	0.96
RXFP2	SID152148146	0.91	0.84	0.92
LONRF1	SID152153192	1.01	0.97	0.96
LHFPL7	SID135625252	0.57	0.36	0.63
CCDC134	SID152147078	0.72	0.42	0.58
SH3TC1	SID135623242	0.9	0.66	0.73
ASB11	SID135622492	0.99	0.81	0.82
OR7G2	SID152147704	1.02	0.93	0.91
TRIM31	SID135621274	0.91	0.62	0.68
TM6SF1	SID152146997	0.65	0.41	0.63
HERC2P3	SID135625254	1.39	0.92	0.66
LPAR1	SID135620717	1.58	1.04	0.66
HTR1E	SID152150348	0.79	0.62	0.78
SYNJ1	SID134323271	1.06	0.74	0.7
HDDC3	SID152155652	0.94	0.74	0.79
ANKRA2	SID152153106	0.95	0.82	0.86
H2BW1	SID152148343	1.1	0.76	0.69
MEAK7	SID152152185	1.09	1.07	0.98
SPMAP2	SID134321039	1.12	1.14	1.02
FABP2	SID134313292	1.02	1	0.98
IGSF6	SID152155127	1.28	0.92	0.72
SLAMF1	SID134323362	0.85	0.57	0.67
GOLGA3	SID152156365	1.18	0.86	0.73
EBPL	SID135622845	1.04	0.87	0.84
MAPK10	SID56478791	0.8	0.8	1
NCOA5	SID152149057	0.94	0.85	0.9
MLF2	SID152152213	1.14	0.73	0.64
ZWINT	SID152150433	1.53	0.52	0.34
SMIM19	SID134319530	1.16	0.85	0.73
HDDC2	SID152148268	0.89	1.1	1.23
PATL1	SID134319625	1.15	0.62	0.54
SERPING1	SID152150291	0.97	0.6	0.62
QTMAN	SID135622733	0.6	0.55	0.92
PHLDA2	SID135622121	1.34	0.43	0.32
KPNA5	SID134315655	1.02	0.63	0.62
EEF1AKMT3	SID134318164	1.1	0.77	0.7
RFC3	SID152156084	1.01	0.92	0.91
PRTG	SID152154134	1.13	0.76	0.67
ABCD2	SID134313782	1.07	1.02	0.95
SCAMP3	SID135622527	0.67	0.62	0.92
OR10A5	SID134313607	0.77	0.34	0.44
PHF6	SID152149677	0.98	0.88	0.9
MEF2D	SID134314581	1.26	1.29	1.02
KIR3DL3	SID152155263	0.97	0.72	0.74
C5AR1	SID152155754	0.88	0.58	0.66
PIWIL1	SID135620857	0.82	0.61	0.74
NABP1	SID135622698	0.81	0.58	0.72
RPS14	SID152149573	1.23	0.32	0.26
CPA3	SID135621078	1.13	0.71	0.63
ZMYND10	SID134324986	1.17	0.89	0.76
MS4A13	SID135625173	1.14	0.74	0.65
LRRC41	SID152156003	0.94	0.77	0.82
MAGEB3	SID134315672	1.18	0.9	0.76
DDO	SID152152702	0.93	0.78	0.84
SMAD1	SID135622377	1.17	1.04	0.89
SEMG2	SID134323479	0.92	0.7	0.76
ZSCAN22	SID134312296	0.86	0.91	1.06
IL36RN	SID134312890	1.09	0.94	0.86
LINGO1	SID134322473	0.92	0.66	0.72
MAP3K7	SID135620737	0.82	0.61	0.74
CHIC1	SID152150625	1.16	1.02	0.88
CARMIL1	SID152151857	1.02	0.55	0.54
USP11	SID152154968	1.07	0.81	0.76
RBKS	SID56479147	0.94	0.99	1.05
CT47A10	SID135625655	1.23	0.76	0.62
PHF20	SID152154431	0.96	0.97	1.01
ZNF581	SID152150754	1.15	0.85	0.74
PTGS2	SID134310519	0.85	0.82	0.96
DYRK2	SID152156553	1.32	1.04	0.79
KMT2E	SID152147669	0.98	0.94	0.96
GNG11	SID152152392	0.97	0.9	0.93
EAF1	SID152150489	0.97	0.57	0.59
GYPB	SID135622174	1.19	1.01	0.85
MYRIP	SID152153710	1.59	0.73	0.46
C21orf58	SID134319266	0.93	0.68	0.73
LMBR1L	SID152149216	1.1	0.96	0.87
SPATA17	SID134320526	1.05	0.9	0.86
ICAM2	SID152146967	1.21	1.02	0.84
C17orf75	SID134318225	0.82	0.62	0.76
MFF	SID135623489	0.9	0.88	0.98
SPATS2	SID135622703	1.01	0.77	0.76
DUSP12	SID135621462	1.17	0.56	0.48
GAP43	SID56479250	1.29	0.93	0.72

6 entries from above, sorted by “CDH1-null / parental viability ratio”, low to high.
gene	PubChem SID	CDH1-null / parental viability ratio	CDH1-null viability vs mock (fraction of mock)	parental viability vs mock (fraction of mock)
MAPK10	SID56478791	0.8	0.8	1
SLAMF1	SID134323362	0.85	0.57	0.67
FABP2	SID134313292	1.02	1	0.98
EBPL	SID135622845	1.04	0.87	0.84
GOLGA3	SID152156365	1.18	0.86	0.73
IGSF6	SID152155127	1.28	0.92	0.72
